The results in this text go back to PubChem BioAssay AID662 (National Center for Advancing Translational Sciences (NCATS), 2007).

The structures appear in SMILES notation. Some of the results follow. The main result of the screen is listed elsewhere. These columns were measured beside it and carry no call. Compounds called inactive in the main read-out are mostly missing here. The note in brackets gives the kind of curve behind each potency; many fits are weak.

The assay in a line: Cell signaling CRE-BLA (Fsk stim). As to conditions: CHO CRE-bla reporter (cAMP response element driving beta-lactamase), forskolin EC10, beta-lactamase ratio; measured here: 460 nm blue channel. Summed up: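 Modulation of forskolin-driven signalling is measured in CHO cells carrying a CRE-controlled beta-lactamase reporter. Cells are stimulated with EC10 NKH 477 in the presence of titrated compound for 3 h at 37 °C, then loaded with CCF4 for 2 h at room temperature.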
With `O=C(c1ccc(Br)cc1)N1CCN(S(=O)(=O)c2ccccc2)CC1`, the AC50 is 12.6 µM [rising, single point].

For `O=C(CCn1c(=S)[nH]c2ccccc2c1=O)NCCCN1CCCC1=O`, the AC50 is 0.0398 µM [falling, full curve, poor fit].

For `O=S(=O)(c1cccs1)N1CCN(CC(O)COc2cc(Cl)ccc2Cl)CC1` (stereo not drawn), the AC50 is 25.1 µM [falling, single point].

On to `CCOC(=O)c1cnc(SC)nc1Nc1cccc(F)c1`, for which the AC50 is 7.94 µM [rising, partial curve].

As for `CCc1ccc(-c2cn(-c3nc(C)cc(C)n3)c(=N)o2)cc1`, the AC50 is 10 µM [falling, partial curve].

For the molecule `CCCOc1ccc(C(=O)NCc2cccnc2)cc1`, the AC50 is 20 µM [falling, single point].

Regarding `Cc1ccc(S(=O)(=O)NCCOc2nc(N(C)C)nc(N3CCOCC3)n2)cc1`, the AC50 was 31.6 µM [falling, partial curve].

Turning to `COc1ccc2c(=O)cc(C(F)(F)C(F)(F)F)oc2c1`, the AC50 was 1 µM [falling, partial curve, poor fit].

For `CC(NC(=O)c1ccccc1O)c1ccccc1` (stereo not drawn), the AC50 is 0.316 µM [rising, partial curve].

Consider `CCOC(=O)CSc1nnc(CNc2ccccc2Cl)n1-c1ccccc1`, for which the AC50 is 0.251 µM [falling, partial curve, poor fit].

On to `O=S1(=O)C=C(Sc2nnc(-c3ccccc3)o2)c2ccccc21`, for which the AC50 was 3.16 µM [falling, full curve].

As to `COc1cc(/C=C(\C#N)C(N)=O)cc(CSc2nc3ccccc3s2)c1O`, the AC50 is 25.1 µM [rising, partial curve].

As for `CCOC(=O)Nc1sc(C(=O)N(CC)CC)c(C)c1C(=O)OCC`, the AC50 is 1.26 µM [rising, partial curve].

With `CCN(CCO)Cc1cn[nH]c1-c1ccc(C)c(C)c1`, the AC50 was 3.98 µM [falling, single point].

With `COc1ccc(NC(=O)c2ccc(Cl)c(S(=O)(=O)N3CCc4ccccc4C3)c2)cn1`, the AC50 is 10 µM [falling, partial curve].

On to `O=C(CN1CCCC1)NCC1(c2ccccc2)CCOCC1`, for which the AC50 is 20 µM [rising, single point].

`Cc1nc(N2CCN(c3ccccc3)CC2)c2c3c(sc2n1)CCC3`: the AC50 was 2.51 µM [rising, full curve].

With `Cc1cccc(-n2c(O)c(C=NCCCN3CCOCC3)c3ccccc3c2=O)c1`, the AC50 is 12.6 µM [rising, partial curve].

On to `COc1ccc(CN2CCN(c3ccccn3)CC2)c(OC)c1`, for which the AC50 was 0.00316 µM [falling, full curve, poor fit].

For `CCOc1ccccc1C(=O)NC1CC2CCCC(C1)N2Cc1nnnn1Cc1ccco1` (stereo not drawn), the AC50 is 10 µM [rising, single point].

Regarding `O=C(CCCn1c(=S)[nH]c2ccc(Br)cc2c1=O)N1CCN(c2ccccn2)CC1`, the AC50 is 2.51 µM [rising, single point].

Turning to `Cc1nc2c(C(=O)N3CCCC3)c[nH]n2c(=O)c1Cc1ccc(F)cc1Cl`, the AC50 was 0.126 µM [falling, partial curve, poor fit].

As for `CCCCOc1cccc(NC(=O)CSc2nccn2C)c1`, the AC50 was 5.01 µM [rising, single point].

On to `CCOC(=O)c1ccccc1NC(=O)COC`, for which the AC50 is 25.1 µM [rising, single point].

On to `Cc1nnc2sc(-c3ccc(-c4ccc(Cl)c(C(F)(F)F)c4)o3)nn12`, for which the AC50 is 10 µM [rising, single point].

For `CCOC(=O)c1c(NC(=O)CNCCO)sc(C)c1C`, the AC50 was 12.6 µM [rising, single point].

For `COc1ccc(Oc2ncc3nc(-c4cccs4)c(=O)n(-c4ccccc4)c3n2)cc1`, the AC50 was 2.51 µM [rising, full curve].

With `Clc1cccc(-c2nn3c(Cn4cnc5ccccc54)nnc3s2)c1`, the AC50 is 20 µM [rising, single point].

For `N#Cc1cccc(-c2nccc(NCc3cccs3)n2)c1`, the AC50 was 5.01 µM [rising, partial curve].

As for `CCCCOc1cccc(OCCCC)c1C(=O)Nc1cc(C)on1`, the AC50 is 12.6 µM [falling, single point].

For the molecule `Cc1ccccc1-c1nc(N2CCN(C)CC2)c2ccccc2n1`, the AC50 was 10 µM [rising, partial curve].

On to `COc1ccccc1NC(=O)Cn1nnc(-c2ccccc2NC(=O)c2ccco2)n1`, for which the AC50 is 15.8 µM [rising, partial curve].

Regarding `O=C(OCCN1CCCCC1)c1ccc(O)cc1`, the AC50 was 1 µM [rising, single point].

As for `CCNc1ncc2nc(C)c(=O)n(CCOC)c2n1`, the AC50 is 12.6 µM [rising, partial curve].

Turning to `COC(=O)CSc1ccc2nnc(-c3ccc(OC)c(OC)c3)n2n1`, the AC50 was 7.94 µM [rising, partial curve].

Regarding `CC(=O)c1c(C)n(-c2ccc(N(C)C)cc2)c2ccc(OCC(N)=O)cc12`, the AC50 is 12.6 µM [rising, partial curve].

Take `Oc1cc(CN2COc3ccccc32)c(O)cc1CNC1CCCCC1`: the AC50 was 5.01 µM [rising, single point].

Turning to `Cc1ccc(Cn2ccc(NC(=O)c3cc(C(C)C)on3)n2)cc1`, the AC50 is 12.6 µM [falling, partial curve].

`Cn1c(=O)c2c(nc(Br)n2CCCc2ccccc2)n(C)c1=O`: the concentration at half-maximal activity (AC50) was 12.6 µM [rising, partial curve].

Take `CCC1(CC)C(=O)N(C)C(=O)NC1=NCc1ccccc1`: the AC50 is 3.98 µM [falling, partial curve, poor fit].

For `Cc1ccc(C(=O)Nc2ccc(S(=O)(=O)N3CCc4ccccc4C3)cc2)o1`, the AC50 is 7.94 µM [falling, partial curve].

Turning to `OCCn1c(SCCOc2ccccc2F)nc2ccccc21`, the AC50 was 0.00398 µM [falling, partial curve, poor fit].

As to `O=C(CN1CCN(c2nc(-c3ccc(F)cc3)cs2)CC1)Nc1ccc2c(c1)OCO2`, the AC50 was 6.31 µM [falling, partial curve, poor fit].

On to `CCCCC(=O)Nc1nc2ccc3nc(C)sc3c2s1`, for which the AC50 is 12.6 µM [rising, partial curve].

`O=C(O)C1=CCCNC1`: the AC50 was 31.6 µM [falling, single point].

Regarding `CCC(=O)N1CCc2cc(S(=O)(=O)CCC(=O)NCc3ccc4c(c3)OCO4)ccc21`, the AC50 is 15.8 µM [rising, partial curve].

Regarding `Cc1nc(SCc2c(F)cccc2Cl)c2c(=O)n(C)c(=O)n(C)c2n1`, the AC50 was 2 µM [rising, full curve].

With `CC1CCN(CCC(=O)N2CCCc3c2c(=O)oc2ccc(O)cc32)CC1`, the AC50 was 10 µM [falling, single point].

As to `COc1ccc(C2=CC(c3ccc(F)cc3)n3nnnc3N2)cc1` (stereo not drawn), the AC50 was 0.00316 µM [falling, full curve, poor fit].

For `CCOc1ccc(S(=O)(=O)Nc2cc(OC)ccc2OC)cc1`, the AC50 is 6.31 µM [rising, partial curve].

In the case of `CN1C(=O)CC(N2CCN(CCN=CC3=C(O)CC(C)(C)CC3=O)CC2)C1=O` (stereo not drawn), the AC50 is 0.1 µM [falling, full curve].

On to `COC(=O)c1oc2ccc(Br)cc2c1-n1cccc1`, for which the AC50 is 25.1 µM [rising, single point].

In the case of `COc1cc2c(cc1OC)-c1cc(NC3CCCC3)nc(=O)n1CC2`, the AC50 is 7.94 µM [rising, partial curve].

On to `CCOC(=O)Cn1nnnc1C(CC)N(Cc1cc2ccc(C)cc2[nH]c1=O)C1CCCC1` (stereo not drawn), for which the AC50 was 0.398 µM [falling, partial curve].

`Cc1cc(=O)n2nc(N3CCCC3C(=O)NCc3ccccn3)sc2n1` (stereo not drawn): the AC50 is 0.0251 µM [falling, full curve, poor fit].

For the molecule `COc1cc(OC)cc(C(=O)Nc2ccc3c(c2)COC3=O)c1`, the AC50 is 15.8 µM [rising, single point].

As for `COc1cc2c(cc1NC(=O)Cn1cnc3c1c(=O)n(C)c(=O)n3C)oc1ccccc12`, the AC50 was 15.8 µM [rising, single point].

Turning to `CC1Cc2nc(SCC(=O)NCc3ccco3)n(Cc3ccccc3)c(=O)c2S1` (stereo not drawn), the AC50 was 12.6 µM [rising, partial curve].

On to `COc1cc2c(cc1NC(=O)c1cncc(Br)c1)oc1ccccc12`, for which the AC50 was 25.1 µM [rising, single point].

For `Cc1nc2ccccc2c(=O)n1/N=C/c1c(O)ccc2oc3c(c12)CCCC3`, the AC50 is 7.94 µM [rising, partial curve].

In the case of `COCCN1C(=O)C(=O)/C(=C(/O)c2ccc(OC(C)C)cc2)C1c1cccnc1` (stereo not drawn), the AC50 is 3.16 µM [falling, full curve, poor fit].

`Cc1ccc([C@@H](O)c2cnc(C)n2Cc2ccccc2)cc1`: the AC50 was 3.98 µM [falling, single point].

Consider `Cc1noc(C)c1C(=O)N1CCN(CCc2ccccc2)CC1`, for which the AC50 was 25.1 µM [rising, single point].

With `CS(=O)(=O)Nc1cccc(-c2cc(NCc3cccs3)ncn2)c1`, the AC50 is 10 µM [rising, partial curve].

In the case of `CCOC(=O)c1ccc(N2C(=O)C3C(C2=O)C(C(=O)c2ccc(Cl)cc2)N2CCCC32)cc1` (stereo not drawn), the AC50 is 3.98 µM [falling, single point].

On to `CSc1ccccc1NC(=O)COc1ccc(S(=O)(=O)N2CCCC2)cc1`, for which the AC50 is 25.1 µM [rising, single point].

`CCOC(=O)c1c(C)n(C)c2ccc(OCC(O)Cn3c(C)nc4ccccc43)cc12` (stereo not drawn): the AC50 is 3.16 µM [rising, partial curve].

As to `Cc1cccc(CNc2ncnc3ccc(-c4ccc(C(=O)N(C)C)cc4)cc23)c1`, the AC50 is 10 µM [rising, single point].

A word on the AC50: it is the concentration giving half of the maximal activity seen.
